Literature values in patent US8039430B2 (University of Wollongong, priority 2005, dated 2011).

Test system: E. faecium isolate (VanD-type)
Conditions: VanD-type E. faecium isolate from the United States, constitutively resistant; cited from earlier work

**Q.** For CN[C@H](CC(C)C)C(=O)N[C@H]1C(=O)N[C@@H](CC(N)=O)C(=O)N[C@H]2C(=O)N[C@H]3C(=O)N[C@H](C(=O)N[C@H](C(=O)O)c4cc(O)cc(O)c4-c4cc3ccc4O)[C@H](O)c3ccc(c(Cl)c3)Oc3cc2cc(c3O[C@@H]2O[C@H](CO)[C@@H](O)[C@H](O)[C@H]2O[C@H]2C[C@](C)(N)[C@H](O)[C@H](C)O2)Oc2ccc(cc2Cl)[C@H]1O [Vancomycin, vancomycin, reference compound], which MIC is on record?
**A.** Its MIC is greater than 64 µg/mL.
